B1: tRNA (parent)
chain: GUUCCGUUGGCGUAAUGGUAACGCGUCUCCCUCCUAAGGAGAAGACUGCGGGUUCGAGUCCCGUACGGAACG

The values that follow come from the RNAGym collection of RNA variant scans (doi:10.1126/science.aae0568).

This sample is rich in variants without activity.

Variants of B1 are the subject of this data set. Kind of data set: yeast fitness relative to wild type (ratio to wild type); higher = fitter; tRNA-Arg(CCU), competitive growth, 37 C, YPD. In short, it runs like this:
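Amplicons of the tRNA-Arg(CCU) gene were sequenced, 100-nucleotide paired-end, from the start population and from each end population of a pooled yeast competition. The competition, in six parallel replicates, lasted 24 hours in YPD at 37°C. Fitness relative to wild type was calculated from changes in genotype frequencies. Genotypes had to have ≥ 100 starting reads, and estimates < 0.5 were set to 0.5.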
As for GUUCCGUUGACGUACUGGUAACGCGUCUCCCUCAUAAGGAGAAGACUGCGGGUUCGUGUCCUGUACGGUACG [G10A A15C C34A A57U C62U A69U], the yeast fitness was at most 0.5.
For GUUGCGGUGGCGUAAUGGUGACGCGUCUCCCUCCUAAGGAGAAGACUGCGGGUUCGAGUCCCGUACGGAACG [C4G U7G A20G], the yeast fitness is at most 0.5.
On to GUUCCGUUGGCGUAAUGGUAACGAAUCUCCCUCCUAAGGAGAAGACUGCGGGUUCGAGUCCAGUACGGAACG [C24A G25A C62A], for which the yeast fitness is at most 0.5.
Regarding GUUCCAUUGGCGUAAUGGUAACGCGUCUCCCUCCUAAGGGGAAGACUGCGGGUUGGAGUCCCGUACGGAACG [G6A A40G C55G], the yeast fitness is at most 0.5.
The value for GUUCCGUUGGGGUAAUGGUAACGCGUCUCCCUCCUAAGGAGAAGACAGCGGGUUCGAGUCCCGUACGCAACG [C11G U47A G68C] was at most 0.5; that for GUUCCGCUGGCGUAAUGGUAACGCGUCUCCCUGCUAAGGAGAAGACUGCGGGUUCGAGUCCCAUACGGAGCG [U7C C33G G63A A70G] was at most 0.5; that for GUUCCAUUGGCAUAAUGGUAACGCGUGUCCCUCCUAAGGAGAAGACUGCGGGUUCGAGUCCCGUACGCAUCG [G6A G12A C27G G68C A70U] was 0.549.
Next, GUUCCGUUGGCGUAAUGGUAACGCGUCUCCCUCCUAAGGAGAAGACUGCCGGAUCGUGUCCCGUUCGGAUCG [G50C U53A A57U A65U A70U]: at most 0.5.
Next, GUUCCGUUGGCGUAUUGGUAACGAGUCUCCCUCCUGUGGAGAAGACUGCGGGUUCGAGUCCCGUUCGGAACG [A15U C24A A36G A37U A65U]: at most 0.5; GAUCCGUUAGCGAAAUGGUAACGAGUCUCCCUCCUAAGGAGAAUCCUGCGGGUUCGAGUCCCGUACGGAACG [U2A G9A U13A C24A G44U A45C]: at most 0.5; GUUCCGUUGGCCUAAUGGUAACGCGUCUCCCUCAUAAGGAGAAGACUGCGGGUUCGAGUCCCAUACGGAACG [G12C C34A G63A]: at most 0.5.
Turning to GUUGCGUUGGCGUAAUGGUAACGCGUCUCCCUCCUUAGGAGAAGAUUGCGGGUUCGAGUCCCGUACAGAGCG [C4G A36U C46U G67A A70G], the yeast fitness is at most 0.5.
On to GUUCCGUUGGCGUACUGGUAACGCGUCUCCCUCCUAAGGAGAAGCCUGCGGGUUCGAGUUUCGUACGGAACG [A15C A45C C60U C61U], for which the yeast fitness was at most 0.5.
Next, GUUCCGUUGGCGUAAUAGUAACGCGUCUCCCUGCUGAGGAGAAGACUGCGGGUUCGAGUCCCAUACGGAACG [G17A C33G A36G G63A]: at most 0.5; GUUCCAUUGGCGUAAUGGUAACGCGUAUCUCUCCUAAGGACAUGACUGAGGGUUCGAGUCCCGUACUGAACG [G6A C27A C30U G41C A43U C49A G67U]: at most 0.5.
Next, GUUCAGUUGGCGUAAUGGUAACGCGUCUCCCUCCUAAGGACAAGACUGCGGGUUCGAGUCCCGUACGAAACG [C5A G41C G68A]: at most 0.5; GUUUCGUUGGCGUAAUGGUAACGCGUGUCCCUCCUAAGGAGAAGACUGCGGGAUCGAGUCCCGUAUGGAACG [C4U C27G U53A C66U]: at most 0.5.
Next, GUUCCGUUGGCGUAAUGGAAACGUGUCUACCUCCUAAGGAGAAGACUGCGGGUUCGAGUCCCGUACGGAACG [U19A C24U C29A]: at most 0.5; GUUCCGUUGGCGUAAUGGUAACGCGUCUCCCUCCUAAGGAGAAGACUCCGGGCUCGAGUCCCGUACGGAACG [G48C U53C]: 0.694.
In the case of GUUUCGUUGGCGUAAUGGUAACGCGUCUCCCUCCUCAGGAGAAGAUUGCGGGUUCGAGUCCCGUACCGAACG [C4U A36C C46U G67C], the yeast fitness was at most 0.5.
Next, GUUCCGUGGGCGUAAUGGUAACGUGUCUCCCUCCUCAGGAGAAGACUGCGGGUUCGAGUCCCGUACGGAACG [U8G C24U A36C]: at most 0.5; GUUCCGUUGGCGUAAUGGUAACCCGUCGCCCUCCUAAGGAGUAGACUGCGGGUUCGAGUCCCGUACGGAACG [G23C U28G A42U]: at most 0.5.
On to GUUCCGUUGGCGUAAUGGUAACGCCUCUCCCUCCCAAGGAGGAGACUGCGGGUUCGACUCCCGUACGGAACG [G25C U35C A42G G58C], for which the yeast fitness is at most 0.5.
The value for GUUCCGGUGGCGUAAUGGUAACGCGUAUUCCUCCUAAGGUGAAGACUGCGGGUUCGAGUCCCGUACGGAACG [U7G C27A C29U A40U] was at most 0.5.
Next, GUUCCGAUGGGGUAAUGGUAACGCGUCUCCCUCCUGAGGAGAAGACUGCGGGUUCGAGUCCCAUACGGAACG [U7A C11G A36G G63A]: at most 0.5; GUUCCGUUGGAGUAAUGGUAACCCGUCUCCCUCCUAAGGAGAAGACUGCGGGUUCGAGUCCCGUUCGAAACG [C11A G23C A65U G68A]: at most 0.5; GUUUCGUUGGCGUAAUGGUAACGCGUCUCCCUCCGAAGGAGAAGACUGCGGGUUCGAGUCCCGUUCGGAACG [C4U U35G A65U]: at most 0.5.
The value for GUUCCGUUGGCGUACUGGUAACGCGUCUCCCUCCCAAGGAGAAGACUGCGGGUUGGAGUCCCGUACGGAGCG [A15C U35C C55G A70G] was at most 0.5; that for GUUCCGUUGGCGUAAGGGUAACACGUCUCCCUCCUAAGGUGAAGACUGCGGGUUCGAGUCCCGUAGGGAACG [U16G G23A A40U C66G] was at most 0.5.
As to GUUCGGUUGGCGUUAUGGUCACGCGUCUCCCUCCUAAGGAGAAGACUGCGGGUUCGAGUCCCGUUCGGAACG [C5G A14U A20C A65U], the yeast fitness was at most 0.5.
The value for GUUCCGUUGGCGUCAUGGUAAUGCGUCUCCCUCUUAAGGAAAAGACUGCGGGUUCGAGUGCCGUGCGGAACG [A14C C22U C34U G41A C60G A65G] was at most 0.5; that for GUUCCGUUGGCGUAAUGGUAACGCGUCUCCCUCCUAAGGAGAAGACUGGGGGUUCGCCUCCCGAACGGAACG [C49G A57C G58C U64A] was at most 0.5.
Next, GUUCCGUUGGCAUAAUGGUAACGCGUCUCCAUCCUAACGAGAAGACUGCGGGUUCGAGUCCCGUGCGGAACG [G12A C31A G38C A65G]: at most 0.5.
Consider GUUCCGUUGGCGUAAUGGUAACGCGUCUCUCUCCUAAGGAGAAGACUGCGGGUUCGAGUCCCGUACGGAACG [C30U], for which the yeast fitness was 1.01.
Next, GUUCCGUUGGCGUAAUGCUAACGCGUCUCCCUCCUAAGGAGAAGACUGCGGGUUAGAGUCCCGUACGGAACG [G18C C55A]: at most 0.5; GUUCCGUUGGCGUAAUGGUAACGCGUCUCCCUCCUUAGGAGACGACUGAGGGUUCGAGUCCCGUACGGAACG [A36U A43C C49A]: at most 0.5.
For GUUCCGUUGGCGUAAAGGUAACGCGUCUCCCUCCUAAAGAGAAGACUGCGGGUUCGAGUCCAGUACGGUACG [U16A G38A C62A A69U], the yeast fitness is at most 0.5.
